These are yes or no findings as the source states them, for the method shown. A result given as binding can be weak or reduced; the word gives no strength.

By UniProt entry, the sequences of proteins in these tests, tags left out. Where a name states a change or a piece, a line headed by the entry shows the natural chain unless it says otherwise.
UniProt M5WCL3: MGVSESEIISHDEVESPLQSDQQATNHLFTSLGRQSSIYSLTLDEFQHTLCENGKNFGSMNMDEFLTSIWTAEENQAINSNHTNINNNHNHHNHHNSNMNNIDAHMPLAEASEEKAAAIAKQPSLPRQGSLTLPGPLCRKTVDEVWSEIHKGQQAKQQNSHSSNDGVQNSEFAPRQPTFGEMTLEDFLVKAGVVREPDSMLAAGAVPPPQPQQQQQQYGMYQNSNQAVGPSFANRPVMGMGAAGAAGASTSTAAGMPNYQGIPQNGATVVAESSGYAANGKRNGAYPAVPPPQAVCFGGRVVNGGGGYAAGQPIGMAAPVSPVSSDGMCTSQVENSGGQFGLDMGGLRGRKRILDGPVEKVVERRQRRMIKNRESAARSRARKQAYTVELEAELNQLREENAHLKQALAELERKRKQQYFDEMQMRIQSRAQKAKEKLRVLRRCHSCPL
UniProt M5WPA1: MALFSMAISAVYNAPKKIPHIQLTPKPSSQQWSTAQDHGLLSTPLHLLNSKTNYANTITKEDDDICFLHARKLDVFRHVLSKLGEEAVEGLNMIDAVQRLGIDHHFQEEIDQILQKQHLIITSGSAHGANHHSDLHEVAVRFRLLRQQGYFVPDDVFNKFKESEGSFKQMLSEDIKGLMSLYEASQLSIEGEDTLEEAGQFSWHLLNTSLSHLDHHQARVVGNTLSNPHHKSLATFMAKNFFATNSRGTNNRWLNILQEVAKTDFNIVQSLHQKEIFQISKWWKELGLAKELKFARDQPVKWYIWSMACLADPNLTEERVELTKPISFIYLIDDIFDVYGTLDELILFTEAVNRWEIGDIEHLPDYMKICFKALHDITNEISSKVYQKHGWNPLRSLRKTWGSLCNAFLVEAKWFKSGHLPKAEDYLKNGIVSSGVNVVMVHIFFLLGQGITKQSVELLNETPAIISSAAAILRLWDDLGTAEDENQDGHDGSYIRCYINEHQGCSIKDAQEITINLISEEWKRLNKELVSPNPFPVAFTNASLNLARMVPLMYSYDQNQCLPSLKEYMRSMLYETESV

The target in the assay is PpABI5-GST protein (Prunus persica (peach)) (UniProt M5WCL3). Nature of the assay: pull-down; purified PpTPS1-His mixed with PpABI5-GST or GST, purified by a GST purification column, Western blot with His/GST tag antibodies; both purified. For orientation: A western blot detects proteins with antibodies after separation by electrophoresis.

For the substance “PpTPS1-His fusion protein (from UniProt M5WPA1) (enzyme)”, the binding result is given as “binds”.

For the origin of these results see paper PMC8905318.
